Data from US9241928B2, “Antimicrobial compounds” (The General Hospital Corporation, priority 2009, dated 2016).
At least one compound was matched to its structure with a doubt left.

System: E. faecalis strain V583
Test: Biofilm maintenance assay (crystal violet)
Type: cell-based, Enterococcus faecalis
Settings: 10 μg/ml added to biofilm established for 24 hours
Experimental: To test for the efficacy of candidate compounds on biofilm maintenance, a bacterial culture of OD600=0.025 was grown in 96-well polystyrene plates for 24 hours as described above to establish biofilm mass prior to the addition of candidate compounds dissolved in DMSO at a final concentration of 10 μg/ml. The plates were then processed as described above.

CN(C)[C@@H]1C(O)=C(C(N)=O)C(=O)[C@@]2(O)C(O)=C3C(=O)c4c(O)cccc4[C@@](C)(O)[C@H]3C[C@@H]12 [tetracycline, reference compound]
biofilm maintenance (OD595, FIG. 3B): largely antibiotic-resistant
